Experimental data from article PMC7046683 (Frontiers in Oncology, 2020).

Columns and labels:
mouse liver microsomes = experiment: 4OH-tamoxifen glucuronidation assay in liver microsomes, with or without morphine; assay type: in vitro ADME; conditions: morphine 500 μM vs absence of morphine
[1] = three i.p. injections of morphine 10 mg/kg at 0, 1 and 2 h; mean ± SEM

With `CN1CC[C@]23c4c5ccc(O)c4O[C@H]2[C@@H](O)C=C[C@H]3[C@H]1C5` [morphine] the “Change of Km for 4OH-tamoxifen-glucuronide production caused by morphine” value (mouse liver microsomes) was “+45%” and the “Highest concentration in the blood” value [1] was 1,599 ± 336 pmol/ml.
